Laboratory results as given in patent US4424229A, “Fluorine containing 2,4,5-triphenylimidazoles” (A/S Dumex (Dumex Ltd.), priority 1982, dated 1984).

How the values were obtained:
[1] = test system: arachidonic acid induced aggregation of human platelet rich plasma; test: Platelet aggregation inhibition test (arachidonic acid induced, human platelet rich plasma); format: cell-based; settings: AA = arachidonic acid
Description: Platelet aggregation inhibition test The ability of the test substance to inhibit arachidonic acid induced aggregation of human platelet rich plasma was tested in a HU aggregometer (from H. Upchurch & Co. Ltd.).

[2] = test system: acetic acid induced writhing movements; test: Writhing test in mice (acetic acid); format: in vivo, mice (NMRI/BOM); settings: Mus musculus, po, 20 min, gavage 1/2 hour before i.p. acetic acid, writhings in 20 minutes, read-out: Analgesic ED50, writhing test
Description: Tests for analgesic activity
1. Writhing test in mice. (SPF females of the strain NMRI/BOM, weighing 20-25 g). The test substance was administered by gavage 1/2 hour prior to an intraperitoneal injection of acetic acid. The number of writhing movements in 20 minutes was counted.

COc1ccc2cc([C@H](C)C(=O)O)ccc2c1 [Compound 14, Naproxen, reference compound]
Inhibition of platelet aggregation IC100 [1]: 4.76 μg/190 μg AA | ED50 [2]: 33 mg/kg
